This test concerns the target runt-related transcription factor 2 (Runx2) (human (endogenous in HOS)) (UniProt Q13950). Put plainly: co-IP; HOS cells treated with or without 20 uM lansoprazole for 2 d; lysed in 50 mM HEPES, 150 mM NaCl, 10% glycerol, 1% Triton X-100, 1.5 mM MgCl2, 1 mM EGTA, 100 mM NaF, 10 mM sodium pyrophosphate, diluted two-fold; immunoprecipitated with 2 ug anti-Runx2 antibody overnight and Dynabeads Protein …; CBP visualised by immunoblotting.

The chains behind the UniProt entries cited, without tags or fusion partners.
UniProt Q13950: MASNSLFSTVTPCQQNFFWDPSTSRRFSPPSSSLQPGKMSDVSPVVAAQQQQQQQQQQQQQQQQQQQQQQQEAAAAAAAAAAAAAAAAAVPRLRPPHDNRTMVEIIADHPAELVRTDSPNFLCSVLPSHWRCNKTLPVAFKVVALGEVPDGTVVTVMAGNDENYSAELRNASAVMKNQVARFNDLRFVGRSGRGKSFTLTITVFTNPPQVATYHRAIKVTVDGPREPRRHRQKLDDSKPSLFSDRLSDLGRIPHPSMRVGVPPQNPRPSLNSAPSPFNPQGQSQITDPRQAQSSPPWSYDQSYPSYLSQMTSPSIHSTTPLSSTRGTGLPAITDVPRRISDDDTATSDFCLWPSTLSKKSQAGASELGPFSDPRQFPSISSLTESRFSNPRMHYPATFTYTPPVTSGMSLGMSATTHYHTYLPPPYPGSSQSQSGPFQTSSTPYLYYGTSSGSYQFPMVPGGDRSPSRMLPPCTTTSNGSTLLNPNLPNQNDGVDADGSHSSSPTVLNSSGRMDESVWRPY
UniProt Q92793: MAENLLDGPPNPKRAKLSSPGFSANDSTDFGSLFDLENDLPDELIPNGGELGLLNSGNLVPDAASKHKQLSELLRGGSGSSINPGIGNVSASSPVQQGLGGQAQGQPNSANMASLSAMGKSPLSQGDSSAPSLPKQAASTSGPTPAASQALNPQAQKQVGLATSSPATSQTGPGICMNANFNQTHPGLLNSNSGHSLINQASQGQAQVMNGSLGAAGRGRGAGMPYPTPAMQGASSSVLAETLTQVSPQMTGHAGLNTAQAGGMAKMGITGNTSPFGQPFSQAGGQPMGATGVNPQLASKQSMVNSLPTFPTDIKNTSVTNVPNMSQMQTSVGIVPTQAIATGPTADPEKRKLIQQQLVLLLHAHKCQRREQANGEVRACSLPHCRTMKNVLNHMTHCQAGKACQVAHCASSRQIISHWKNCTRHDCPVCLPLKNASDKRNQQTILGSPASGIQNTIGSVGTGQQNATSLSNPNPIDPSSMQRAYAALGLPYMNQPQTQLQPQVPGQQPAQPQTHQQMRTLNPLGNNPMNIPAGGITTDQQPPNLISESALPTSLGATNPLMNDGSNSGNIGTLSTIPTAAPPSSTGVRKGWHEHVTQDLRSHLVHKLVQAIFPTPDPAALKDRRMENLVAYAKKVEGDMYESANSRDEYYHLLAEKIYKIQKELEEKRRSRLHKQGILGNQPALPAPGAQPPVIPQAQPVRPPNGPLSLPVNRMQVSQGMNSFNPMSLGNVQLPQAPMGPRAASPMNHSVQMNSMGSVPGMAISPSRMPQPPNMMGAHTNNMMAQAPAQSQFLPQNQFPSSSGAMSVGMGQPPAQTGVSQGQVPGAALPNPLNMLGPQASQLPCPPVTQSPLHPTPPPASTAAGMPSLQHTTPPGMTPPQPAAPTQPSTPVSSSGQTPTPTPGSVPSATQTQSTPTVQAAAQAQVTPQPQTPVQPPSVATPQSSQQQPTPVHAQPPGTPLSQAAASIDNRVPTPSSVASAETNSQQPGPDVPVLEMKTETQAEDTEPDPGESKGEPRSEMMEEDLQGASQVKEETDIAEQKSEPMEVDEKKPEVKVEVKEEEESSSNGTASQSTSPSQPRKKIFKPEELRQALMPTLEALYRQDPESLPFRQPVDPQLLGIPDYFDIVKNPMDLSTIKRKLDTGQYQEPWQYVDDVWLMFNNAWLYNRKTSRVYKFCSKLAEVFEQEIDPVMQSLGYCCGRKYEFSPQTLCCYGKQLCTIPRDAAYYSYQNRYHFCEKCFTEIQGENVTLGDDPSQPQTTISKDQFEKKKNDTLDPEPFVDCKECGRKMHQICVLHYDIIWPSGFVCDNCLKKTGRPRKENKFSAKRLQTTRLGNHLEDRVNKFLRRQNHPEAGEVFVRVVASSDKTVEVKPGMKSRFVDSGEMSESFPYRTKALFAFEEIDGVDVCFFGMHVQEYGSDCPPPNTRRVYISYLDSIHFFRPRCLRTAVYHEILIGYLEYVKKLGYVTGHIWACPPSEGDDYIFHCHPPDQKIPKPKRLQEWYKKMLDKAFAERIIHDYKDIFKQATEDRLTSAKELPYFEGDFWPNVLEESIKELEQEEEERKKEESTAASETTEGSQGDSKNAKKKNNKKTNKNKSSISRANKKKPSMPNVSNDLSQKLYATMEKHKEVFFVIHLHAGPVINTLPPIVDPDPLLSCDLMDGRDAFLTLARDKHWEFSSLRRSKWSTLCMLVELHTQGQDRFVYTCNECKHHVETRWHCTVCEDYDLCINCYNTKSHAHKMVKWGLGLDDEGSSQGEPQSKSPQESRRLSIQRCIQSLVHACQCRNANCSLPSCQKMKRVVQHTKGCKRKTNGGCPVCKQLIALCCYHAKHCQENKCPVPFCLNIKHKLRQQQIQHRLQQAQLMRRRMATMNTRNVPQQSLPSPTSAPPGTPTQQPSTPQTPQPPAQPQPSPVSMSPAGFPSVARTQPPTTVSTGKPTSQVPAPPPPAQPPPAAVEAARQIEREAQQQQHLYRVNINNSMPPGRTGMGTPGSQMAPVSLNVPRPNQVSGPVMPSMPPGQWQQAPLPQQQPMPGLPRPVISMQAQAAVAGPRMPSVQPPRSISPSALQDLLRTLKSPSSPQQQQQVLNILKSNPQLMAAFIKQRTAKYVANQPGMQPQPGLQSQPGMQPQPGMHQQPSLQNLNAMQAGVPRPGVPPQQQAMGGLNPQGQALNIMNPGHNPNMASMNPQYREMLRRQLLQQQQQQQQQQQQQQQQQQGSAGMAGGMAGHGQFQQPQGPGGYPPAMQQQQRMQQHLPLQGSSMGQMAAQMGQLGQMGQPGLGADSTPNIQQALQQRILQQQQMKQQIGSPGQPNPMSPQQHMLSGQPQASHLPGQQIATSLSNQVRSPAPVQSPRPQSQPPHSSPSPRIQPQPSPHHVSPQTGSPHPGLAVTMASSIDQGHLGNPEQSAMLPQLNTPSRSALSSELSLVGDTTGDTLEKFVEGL

Results are given in words; binding and its absence hold for the method and conditions named. Binding seen in cells or lysates may run through a third protein. Some results given as binding are weak or reduced against the parent protein; the word gives no strength.

As for “CREB-binding protein (CBP) (from UniProt Q92793 1-2442)”, the binding entry is “binds”.

The record behind these values is PMC4703748.
